Test results reported in PubChem BioAssay AID540276 (National Center for Advancing Translational Sciences (NCATS), 2011).
Out of some 300,000 compounds screened, about 5,400 (1.8%) were called active. Inconclusive means that the source gave no clear call. Such entries were picked first, then a sample of the others. Calls come from the whole dose curve; tested in HEK293 cells. Where the call is inconclusive, the potency comes from a doubtful curve fit.

Test: qHTS for inhibitors of binding or entry into cells for Marburg Virus
Conditions: Marburg virus pseudotyped entry inhibition, cell reporter; activity change, negative = inhibition: at 37.8 µM (top of the series) unless noted
% is set by controls: 0 for no effect and ±100 for the full control effect; potency is the fitted concentration of half-maximal effect.

Q: With COc1ccc(OC)c2sc(N3CCN(C(=O)c4ccc5ncsc5c4)CC3)nc12 as the compound, how does the Potency read?
A: The Potency was inconclusive: 35.5 µM [inhibitor, single point].

Q: For O=C(COC(=O)C1=COCCO1)Nc1ncc(Cl)cc1Cl, which Potency is on record?
A: Its Potency is inconclusive: 5.01 µM [activator, partial curve, poor fit].

Q: For CC(CCc1ccccc1)NC(=O)CN1CCSc2ccccc21 (configuration not stated), which “activity change, negative = inhibition” value is on record?
A: Its value is inactive: -11.4% [at 46.1 µM].

Q: Which Potency does the source give for O=C(COC(=O)CCc1c[nH]c2ccccc12)NCCc1ccccc1 here?
A: Its Potency is inconclusive: 0.708 µM [activator, partial curve, poor fit].

Q: Which Potency does the source give for N=c1n(CCO)c2ccccc2n1Cc1ccccc1F here?
A: Its Potency is inconclusive: 7.08 µM [inhibitor, partial curve, poor fit].

Q: For CCOCc1cn(CC(=O)c2ccc([N+](=O)[O-])cc2)c(C)nc1=N, which “activity change, negative = inhibition” value is on record?
A: The value was inactive: -5.68%.

Q: With CCCCCn1c(=O)[nH]c2cc(C(=O)NCCN(C)CCCC)ccc2c1=O as the compound, how does the Potency read?
A: Its Potency is inconclusive: 17.8 µM [inhibitor, single point].

Q: For COc1ccccc1N1CCN(CC(O)COc2ccc3c(c2)CCC3)CC1 (configuration not stated), which Potency is on record?
A: Its Potency is inconclusive: 10 µM [inhibitor, partial curve, poor fit].

Q: For CC(=O)NCCn1c(SCc2ccccc2F)nc2ccccc2c1=O, which Potency is on record?
A: The Potency was inconclusive: 14.6 µM [inhibitor, single point].

Q: For CC(=O)C(c1ccccc1)C(c1ccccc1)C(C)[N+](=O)[O-] (configuration not stated), which “activity change, negative = inhibition” value is on record?
A: The value was inactive: -8.68%.

Q: Which Potency does the source give for COCCn1c(-c2cc(OC)c(OC)c(OC)c2)nc2oc3ccccc3c(=O)c2c1=O here?
A: The Potency was inconclusive: 23.1 µM [inhibitor, partial curve, poor fit].

Q: For c1ccc2c(NC[C@@H]3CCCO3)nc(-c3ccncc3)nc2c1, which Potency is on record?
A: The Potency was inconclusive: 11.2 µM [inhibitor, partial curve].

Q: For CCOc1ccc(NC(=O)CN2C(=O)CSC(C)C2=O)cc1 (configuration not stated), which “activity change, negative = inhibition” value is on record?
A: Its value is inactive: 27%.

Q: Which “activity change, negative = inhibition” value does the source give for Cc1ccc(N2C(=O)c3ccc(C(=O)N4CCN(Cc5ccccc5)CC4)cc3C2=O)cc1 here?
A: The value was inactive: -5.61% [at 46.1 µM].

Q: For O=C(Nc1ccc(Cl)cn1)c1ccc(-c2ccc(Cl)c(Cl)c2)o1, which Potency is on record?
A: The Potency was inconclusive: 0.501 µM [inhibitor, partial curve, poor fit].

Q: Which Potency does the source give for Nc1nc(NCc2ccco2)nc(Nc2ccc(F)cc2)c1[N+](=O)[O-] here?
A: Its Potency is inconclusive: 35.5 µM [activator, single point].

Q: With CC1=NN(/C(=N\c2nnc(C)s2)Nc2ccccc2)[C@H](c2ccc(C)cc2)S1 as the compound, how does the Potency read?
A: The Potency was inconclusive: 0.058 µM [activator, partial curve, poor fit].

Q: With CCc1ccc(-n2nc3cc(C)c(NC(=O)c4ccccc4C)cc3n2)cc1 as the compound, how does the Potency read?
A: Its Potency is inconclusive: 1.26 µM [activator, full curve, poor fit].

Q: Which “activity change, negative = inhibition” value does the source give for CCc1cccc(NC(=O)COC(=O)/C=C/c2cccs2)c1 here?
A: The value was inactive: 12.8%.

Q: For Cc1ccc(S(=O)(=O)c2c(C)cc(C)nc2Oc2cccc(C)c2C)cc1, which Potency is on record?
A: The Potency was inconclusive: 22.4 µM [inhibitor, single point].

Q: For O=C1C2CC=CCC2C(=O)N1c1ccc(NCCc2ccccc2)c([N+](=O)[O-])c1 (configuration not stated), which Potency is on record?
A: The Potency was inconclusive: 5.62 µM [activator, single point].

Q: For O=C(/C=C/c1ccco1)Oc1ccc(C(=S)N2CCOCC2)cc1, which “activity change, negative = inhibition” value is on record?
A: The value was inactive: -5.57% [at 46.1 µM].

Q: With O=C(CNC(=S)NC(=O)c1ccccc1)c1ccccc1 as the compound, how does the Potency read?
A: The Potency was inconclusive: 5.62 µM [activator, single point].

Q: Which Potency does the source give for COc1ccc(C(C(O)C(=O)c2c[nH]c3ccccc23)N2CCN(c3ccccc3)CC2)cc1 (configuration not stated) here?
A: The Potency was inconclusive: 11.2 µM [inhibitor, single point].

Q: For Cc1ccc(NC2CCCN(C(=O)c3cn4cccc(C)c4n3)C2)cc1C (configuration not stated), which “activity change, negative = inhibition” value is on record?
A: Its value is inactive: 2.64%.

Q: For CC1CC(OCC(O)CN2CCOCC2)CC(C)(C)C1 (configuration not stated), which Potency is on record?
A: The Potency was inconclusive: 31.6 µM [activator, single point].

Q: For CNC(=O)COC(=O)/C=C/c1c(C)nn(-c2ccccc2)c1C, which Potency is on record?
A: Its Potency is inconclusive: 0.891 µM [inhibitor, single point].

Q: Which “activity change, negative = inhibition” value does the source give for COc1ccc(NC(=O)NNC(=O)COc2ccc3ccccc3c2)cc1 here?
A: Its value is inactive: -6.01%.

Q: For O=C(c1ccccc1CCc1ccccc1)N1CCN(c2ccccn2)CC1, which Potency is on record?
A: Its Potency is inconclusive: 35.5 µM [inhibitor, single point].

Q: With COC(c1ccccc1)c1nnc(CCC(=O)NCCCc2ccccc2)o1 (configuration not stated) as the compound, how does the Potency read?
A: Its Potency is inconclusive: 25.1 µM [inhibitor, single point].

Q: With COc1ccc(CC(=O)N/N=C(\C)c2cccnc2)cc1 as the compound, how does the Potency read?
A: Its Potency is inconclusive: 6.31 µM [inhibitor, single point].

Q: Which Potency does the source give for CCN(CC)CCCNC(=S)N1CCN(c2nc3ccccc3n2CC)CC1 here?
A: The Potency was inconclusive: 15.8 µM [inhibitor, partial curve, poor fit].

Q: With COc1ccc(-c2cc3c(=O)n(CC(=O)NCc4cccnc4)nc(C)n3n2)cc1 as the compound, how does the Potency read?
A: Its Potency is inconclusive: 3.16 µM [activator, single point].

Q: With Cc1cc2nn(-c3ccccc3)nc2cc1NC(=O)c1cccs1 as the compound, how does the Potency read?
A: The Potency was inconclusive: 3.66 µM [activator, single point].

Q: With COc1ccc(C2NC(=O)NC(O)(C(F)(F)F)C2C(=O)c2ccc(F)cc2)cc1 (configuration not stated) as the compound, how does the Potency read?
A: The Potency was inconclusive: 2.51 µM [inhibitor, full curve, poor fit].

Q: With O/N=C/c1cn(-c2ccccc2)nc1-c1ccccc1 as the compound, how does the Potency read?
A: Its Potency is inconclusive: 35.5 µM [inhibitor, partial curve, poor fit].

Q: For N#Cc1cccc(NC(=O)C2CCN(c3cnccn3)CC2)c1, which Potency is on record?
A: Its Potency is inconclusive: 6.31 µM [inhibitor, single point].

Q: Which Potency does the source give for COc1ccc(NC(=O)CCSc2ccc(C)cc2)cc1S(=O)(=O)Nc1ccccc1Cl here?
A: The Potency was inconclusive: 28.2 µM [inhibitor, single point].

Q: For CCOC(=O)C1=C(C(F)(F)F)Nc2ncnn2C1c1cc(OC)ccc1OC (configuration not stated), which Potency is on record?
A: The Potency was inconclusive: 31.6 µM [activator, single point].

Q: Which Potency does the source give for CC1(C(=O)N/N=C/c2c(F)c(F)c(F)c(F)c2F)CC1(Cl)Cl (configuration not stated) here?
A: Its Potency is inconclusive: 15.8 µM [inhibitor, single point].

Q: With Cc1cc(N/C=C\C(=O)c2ccc(Cl)c(Cl)c2)no1 as the compound, how does the Potency read?
A: Its Potency is inconclusive: 6.31 µM [activator, single point].

Q: For CCOc1ccccc1-c1noc(CCCC(=O)Nc2cccc(C(F)(F)F)c2)n1, which Potency is on record?
A: The Potency was inconclusive: 2 µM [inhibitor, partial curve, poor fit].
